From paper PMC10575817
These are yes or no findings as the source states them, for the method shown. In cells and extracts the contact can be indirect. Some binding calls cover weakened binding; strength is not graded here.

Chains of the proteins cited; added tags and fusions are not shown.
UniProt P16989: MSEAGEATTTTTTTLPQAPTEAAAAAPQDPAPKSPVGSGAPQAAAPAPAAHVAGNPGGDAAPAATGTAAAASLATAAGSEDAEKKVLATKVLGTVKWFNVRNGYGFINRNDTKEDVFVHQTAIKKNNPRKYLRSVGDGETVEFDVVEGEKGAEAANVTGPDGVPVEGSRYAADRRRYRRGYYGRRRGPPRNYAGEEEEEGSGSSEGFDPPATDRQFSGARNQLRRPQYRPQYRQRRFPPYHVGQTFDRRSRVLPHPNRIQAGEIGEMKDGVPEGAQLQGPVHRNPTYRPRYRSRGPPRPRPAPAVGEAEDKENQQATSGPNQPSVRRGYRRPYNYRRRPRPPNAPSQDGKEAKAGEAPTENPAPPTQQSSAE
UniProt Q07157: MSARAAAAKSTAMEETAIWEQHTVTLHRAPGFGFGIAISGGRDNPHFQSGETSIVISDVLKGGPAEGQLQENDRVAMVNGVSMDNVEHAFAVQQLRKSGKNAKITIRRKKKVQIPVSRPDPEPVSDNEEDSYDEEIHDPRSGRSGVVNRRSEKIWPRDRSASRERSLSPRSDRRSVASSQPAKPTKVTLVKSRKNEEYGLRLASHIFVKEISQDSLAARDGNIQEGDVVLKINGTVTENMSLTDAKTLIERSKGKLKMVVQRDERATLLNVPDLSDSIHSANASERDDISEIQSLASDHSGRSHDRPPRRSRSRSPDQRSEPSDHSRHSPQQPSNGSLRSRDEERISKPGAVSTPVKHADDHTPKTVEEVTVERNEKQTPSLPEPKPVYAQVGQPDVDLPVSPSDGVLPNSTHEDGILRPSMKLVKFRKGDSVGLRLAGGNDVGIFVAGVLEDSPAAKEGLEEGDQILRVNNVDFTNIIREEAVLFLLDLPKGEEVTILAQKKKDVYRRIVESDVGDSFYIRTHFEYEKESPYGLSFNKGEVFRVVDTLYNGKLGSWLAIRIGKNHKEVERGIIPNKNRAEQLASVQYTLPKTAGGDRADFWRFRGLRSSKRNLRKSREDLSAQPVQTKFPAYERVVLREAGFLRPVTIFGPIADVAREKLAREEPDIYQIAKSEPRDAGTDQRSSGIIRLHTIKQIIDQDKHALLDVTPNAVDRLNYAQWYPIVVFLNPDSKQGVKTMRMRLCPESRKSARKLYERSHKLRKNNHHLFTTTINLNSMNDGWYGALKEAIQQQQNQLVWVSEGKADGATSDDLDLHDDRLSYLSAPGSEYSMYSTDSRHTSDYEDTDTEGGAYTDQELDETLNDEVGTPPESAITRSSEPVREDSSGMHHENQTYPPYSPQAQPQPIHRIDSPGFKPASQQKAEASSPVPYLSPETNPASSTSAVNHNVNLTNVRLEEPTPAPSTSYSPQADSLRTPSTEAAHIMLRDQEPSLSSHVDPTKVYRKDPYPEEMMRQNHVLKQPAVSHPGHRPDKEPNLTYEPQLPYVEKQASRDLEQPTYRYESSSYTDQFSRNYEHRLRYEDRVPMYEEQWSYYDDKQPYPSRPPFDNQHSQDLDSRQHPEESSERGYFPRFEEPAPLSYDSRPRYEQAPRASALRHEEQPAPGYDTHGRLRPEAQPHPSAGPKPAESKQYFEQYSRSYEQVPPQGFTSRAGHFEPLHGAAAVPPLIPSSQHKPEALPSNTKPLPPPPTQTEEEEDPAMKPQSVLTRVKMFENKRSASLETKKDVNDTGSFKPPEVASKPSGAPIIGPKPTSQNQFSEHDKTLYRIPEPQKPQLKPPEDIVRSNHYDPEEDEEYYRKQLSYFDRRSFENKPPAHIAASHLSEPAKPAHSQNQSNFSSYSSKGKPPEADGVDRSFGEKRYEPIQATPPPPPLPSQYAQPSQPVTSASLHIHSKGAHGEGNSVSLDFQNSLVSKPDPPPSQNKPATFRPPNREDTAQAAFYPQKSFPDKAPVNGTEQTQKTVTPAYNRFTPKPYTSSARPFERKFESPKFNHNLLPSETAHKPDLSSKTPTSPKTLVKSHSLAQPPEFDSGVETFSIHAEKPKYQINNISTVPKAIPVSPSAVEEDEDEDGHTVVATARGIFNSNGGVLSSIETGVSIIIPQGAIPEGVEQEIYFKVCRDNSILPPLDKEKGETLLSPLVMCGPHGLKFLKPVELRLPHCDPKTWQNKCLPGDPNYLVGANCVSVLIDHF

Molecular target: Y-box binding protein 3 (YBX3) (human (endogenous in MSCs)) (UniProt P16989)
Assay: co-IP; protein extracted from MSCs incubated with anti-YBX3 antibody (or IgG control) at 4 °C for 6 h, protein G beads overnight, immunoblot with anti-ZO-1 and anti-YBX3; MSCs transfected beforehand with NC siRNA, si-circSERPINE2, LV vector or LV-circSERPINE2 (Fig. 3L), or with circSERPINE2-WT or truncated circSERPINE2 (fig. S2J-K)

binding: binds
Substance: ZO-1 (from UniProt Q07157 1-1748)
